Experimental data reported in patent publication US20170189366A1, “METHOD FOR TREATING DISORDERS RELATED TO COMPLEMENT ACTIVATION” (CASE WESTERN RESERVE UNIVERSITY, priority 2006, published 2017).
For at least one compound, name, drawing or mass did not settle the structure.

Tests used:
[1] = test system: C3b activation on Bruch's membrane; test: Alternative pathway-dependent amplification of complement activation on C3b-seeded Bruch's membrane; assay type: biochemical, human; settings: at 0.3 μM; purified Bruch's membrane from an AMD patient, after addition of C3, factor B, factor D, factor H
[2] = test system: EAE (multiple sclerosis symptoms); test: EAE mouse model, clinical score; assay type: in vivo; settings: female C57BL/6 mice; 10 mg/kg every other day i.p. from day 0

N=C(N)Nc1ccc(C(=O)Oc2ccc3cc(C(=N)N)ccc3c2)cc1 [FUT-175, 6-amidino-2-napthyl-4-guanidinobenzoate dimethanesulfonate]
inhibition of further C3b activation [1]: About 50%
clinical score (degrees of MS symptoms) compared to control mice [2]: substantially reduced
